Results published in paper PMC7173930, “EAT-18 is an essential auxiliary protein interacting with the non-alpha nAChR subunit EAT-2 to form a functional receptor” (PLoS Pathogens, 2020).

Chains of the proteins cited; added tags and fusions are not shown. Lines headed by an entry give the natural chain unless they say otherwise; changes in a name come on top.
UniProt Q86DB4: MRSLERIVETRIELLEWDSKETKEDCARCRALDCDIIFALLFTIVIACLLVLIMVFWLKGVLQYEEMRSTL

Molecular target: T1, Cel-EAT-2-GFP (C. elegans non-alpha nAChR subunit EAT-2, GFP tagged) (C. elegans) (UniProt Q9U298)
T1 sequence: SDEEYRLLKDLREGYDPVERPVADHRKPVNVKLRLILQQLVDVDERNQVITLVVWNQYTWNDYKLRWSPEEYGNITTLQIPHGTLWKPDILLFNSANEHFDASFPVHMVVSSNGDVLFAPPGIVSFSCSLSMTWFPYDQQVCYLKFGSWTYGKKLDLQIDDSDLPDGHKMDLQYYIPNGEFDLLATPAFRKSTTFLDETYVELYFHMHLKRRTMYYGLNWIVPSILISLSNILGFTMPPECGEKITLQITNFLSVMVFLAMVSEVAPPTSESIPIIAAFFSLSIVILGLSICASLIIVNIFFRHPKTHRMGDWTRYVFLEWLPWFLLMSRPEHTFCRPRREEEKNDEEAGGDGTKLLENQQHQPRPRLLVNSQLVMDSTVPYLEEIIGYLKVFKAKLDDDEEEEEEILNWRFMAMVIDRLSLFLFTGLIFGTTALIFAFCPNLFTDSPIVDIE
Test: co-IP; Xenopus oocyte membrane extracts; Cel-EAT-2-GFP immunoprecipitated with anti-GFP-Trap-A beads, Cel-EAT-18-His detected by Western blot with anti-His antibody; un-injected oocytes and oocytes injected with Cel-EAT-2-GFP alone as negative controls

binding: binds
Substance: Cel-EAT-18c-His (C. elegans EAT-18 isoform c, 6xHis tagged) (from UniProt Q86DB4)

Results are given in words; binding and its absence hold for the method and conditions named. Binding seen in cells or lysates may run through a third protein. Binding calls can cover weak binding; strength is not graded here. Sequences can lack the tags named with a protein.
